Laboratory results as given in patent publication US20220389057A1, “ENDOCYTOSIS ROUTING SEQUENCE PEPTIDE FOR CELL DELIVERY SYSTEMS” (SZEGEDI TUDOMÁNYEGYETEM, priority 2019, published 2022).
Some entries share one result that the patent states for a list of compounds.

Assay: Isothermal titration calorimetry (ITC), binding to ganglioside GM1
Conditions: read-out: affinity to GM1 (dissociation constant Kd)
Experimental: Isothermal calorimetric titrations (ITC) were performed with a MicroCal VP-ITC microcalorimeter in pH 7.2 phosphate buffer solution. In individual titrations, 15 μL GM1:DPC 1:5 containing solution was injected from the computer-controlled […] microsyringe at intervals of 300 s into the ligand solution, dissolved in the same buffer as the GM1. All measurements were carried out at 35° C. The ligands concentration in the cell was 15 μM, and the concentration of GM1 in the syringe was 300 μM. Control experiments were performed by injecting GM1 into the cell containing buffer but no ligands Experiments were repeated twice. The experimental data were fitted to the one binding site or two independent sites model (adjustable parameters: ΔHb1, Kd1, n1 and ΔHb2, Kd2, n2) using a nonlinear least-squares procedure. Errors were calculated by jackknife resampling.
Binding of Trp-Tyr-Lys-Tyr-Trp (WYKYW) and analogues to various ganglioside derivatives was tested as described under “Isothermal Titration calorimetry” to explore the specificity of the interaction between WYKYW and GM1. Affinity data for binding between WYKYW and various ganglioside derivatives (FIG. 1), and for binding between various mutated sequences of WYKYW and GM1 (Table 1) were obtained by Isothermal Titration calorimetry as described in Example 1 (General methods).

Row | Substance | Kd
1 | Trp-Tyr-Lys-β^3-homo-Tyr-Trp [WYKbYW] | < 200 nM
2 | Trp-β^3-homo-Tyr-Lys-Tyr-Trp [WbYKYW] | < 200 nM
3 | β^3-homo-Trp-Tyr-Lys-Tyr-Trp [bWYKYW] | < 200 nM
